Results as given in patent US20220127357A1.
No constants are given. Whether binding was seen depends on the method and setting. Some binding calls cover weakened binding; strength is not graded here.

Key:
[1] = target: cyno CD47-His protein (cynomolgus); assay: ELISA on cyno CD47-His protein
[2] = target: cyno CD47-His protein (cynomolgus); assay: ELISA (FIG. 3B)

B1: B5714 (antibody, V domains shown)
VH: QIQLQQSGPELVKPGASVKISCKASGYTFTDYYINWVKQKPGQGPEWIGWIYPGSANTKYSEKVKGKATLTVDTSSTTAYMQLSSLTSDDTAVYFCTRNDPLITAVVPDYWGQGTTLTVSS
VL: DIVMSQSPSSLAVSVGEKVTMSCRSSQSRLYSSNQKNYLAWYQQKPGQSPKLLIYWASTRESGVPDRFTGSGSGTDFTLTISSVKAEDLAVYYCQQYYNYPPTFGGGTKLEIK
- binding [1]: binds
- binding [2]: binds
